The other results are listed elsewhere or left out.
B1: il2ra_site2_2erj_normal_mot_HHH_b2_01275_af2_000000073_0001_23_39_H_._HHH_b1_03567_af2_0001_0000300025_0000001_0 (protein)
chain: SSSSNREELKRLYELAVRLLHLLFRGDEEKVEEVLEELKELAEKLQSDTAREVVERVQEKLSSSS
B2: il2ra_site1_3nfp_normal_mot_HHH_b2_00128_000000255_0001_39_54_H_._acfcd8feda8a25c16a341ca1bc1bbb0a_0001_1_af2_0001_0000100002_0000001_0 (protein)
chain: NEAAELLHELVREYRDDPEVREILEEIMHLIARGNPEEAVKLLEELAKRLNDPEIEEIAKLVEEA
B3: il2ra_site2_2erj_normal_mot_HHH_b2_05198_af2_000000162_0001_40_52_H_._HHH_b1_05937_0001_0000100004_0000001_0 (protein)
chain: SSSSSDEEEEEIEELLERMKRIKDEEEFEKLVSEASVLIFRANNFELFDELARIFREFASSSSSS
B4: il2ra_site1_3nfp_normal_mot_HHH_b1_07861_af2_000000213_0001_22_38_H_._270c228088714b382bf5ac4c94627418_0001_0001_0000200006_0000001_0_af2pred_0001_af2pred (protein)
chain: SARELARLAKELGNEELLRLIFEALAIAIRKRDPELEKRLLELAEEALKKNDPELAEEIERLAEK
B5: il2ra_site2_3nfp_normal_mot_HHH_b1_00660_af2_000000090_0001_40_57_H_._HHH_b2_05982_0001_0000600017_0000001_0 (protein)
chain: SSSSSEREEKVEELLERAREYYENGNPEAVERLLAEALHIAYEYNDFELFALIQEFRSKLTSSSS
B6: il2ra_site2_3nfp_normal_mot_HHH_b2_00746_000000285_0001_20_36_H_._HHH_b1_07135_0001_0000400031_0000001_0 (protein)
chain: SSSSDVEERVRELLEKAREALEEGDPHEAFAILNDAAFLALRNGDEELLREVQEVAREIAESSSS
B7: il2ra_site1_3nfp_sap_9_mot_HHH_b1_00258_000000025_0001_42_56_H_._HHH_b1_03356_af2_0001_0000300034_0000001_0_0001 (protein)
chain: SSSSTAAEWLEELVEKLYEEGDADQVRAILRLLERAAEQLNNPLAREVAEEVEKLLRKLEGSSSS
B8: il2ra_site2_3nfp_sap_35_mot_HHH_b1_04787_000000220_0001_23_40_H_._HHH_b1_05252_af2_0001_0000700035_0000001_0_0001 (protein)
chain: SSSSDKAEKYLEIAIRLARRALEEGDPEVAKRILELARLMAESNGNEELLEEIRELLEELSSSSS
B9: il2ra_site1_2b5i_normal_mot_HHH_b2_04910_000000118_0001_1_19_H_._HHH_b2_03045_0001_0001100040_0000001_0_af2pred_0001_af2pred_1 (protein)
chain: SSSSSSEELRELLEEANELFQNGNPEEARQVLEEARELAEELNSRALRRMVESALRELGSSSSSS
B10: il2ra_site2_3nfp_sap_18_mot_HHH_b2_05132_000000098_0001_38_52_H_._461c5b8021308318a9a61a4e77c13547_0001_af2_0001_0000900009_0000001_0_0001 (protein)
chain: SSSSSDESHEYLRAVLLLAEEASEEDPELARKLAELLERAIKDAGDEELQELVEELLERLSSSSS
B11: il2ra_site2_3nfp_sap_23_mot_HHH_b1_00050_000000292_0001_22_38_H_._HHH_b1_02222_af2_0001_0000800021_0000001_1_0001_af2pred_0001_af2pred (protein)
chain: SSSSSSSEEEEEVRELLEEAKQIEDPFEAFAVLADAAFLALELGDEELARRILKLASRLSSSSSS
B12: il2ra_site1_1z92_sap_15_mot_HHH_b2_00494_000000030_0001_41_54_H_._HHH_b2_01953_0001_0000500033_0000001_0_0001 (protein)
chain: DEEELLEEAEELAPNPSVRWVVRLFESALRTGNERRLRFLLQHLKDLASRDPRVREVLRLLEEVH
B13: il2ra_site1_3nfp_normal_mot_HHH_b2_01680_af2_000000278_0001_1_15_H_._HHH_b2_01154_af2_0001_0000400017_0000001_0_af2pred_0001_af2pred_swapped (protein)
chain: SSSSSELQRLFREIRELAKRGDPEEALKLAEEALKLAEELNNEAARRKLELAIRLIRRLNSSSSS
B14: il2ra_site1_2b5i_sap_6_mot_HHH_b1_05282_000000062_0001_1_18_H_._e7eb5d6140ef2dd7c28d54bc65c38495_0001_1_0001_0000400028_0000001_0_0001_af2pred_dldesign_0_af2pre … (protein)
chain: SSSSDPFELAERAFNEASRLFRAGKKEEAKKVLEDAIKELKKLGAEKLVAELEKFLKLVLGSSSS
B15: il2ra_site2_3nfp_normal_mot_HHH_b1_04762_000000120_0001_42_54_H_._HHH_b2_02003_0001_0000800040_0000001_0 (protein)
chain: SSSSDAEEYIRAALLLAERAARRNDPAAERHLKLIRLAIESKGDEEAEELLEEIERLLRELSSSS
B16: il2ra_site2_3nfp_normal_mot_HHH_b1_00660_af2_000000090_0001_40_57_H_._HHH_b2_03956_0001_0000500028_0000001_0_af2pred_0001_af2pred (protein)
chain: SSSSDEEEEQVERLLEEAKRLYENGNPEEAEKVLRRAADIAWELGNFELFAEILLLLEEIESSSS
B17: il2ra_site2_2erj_sap_23_mot_HHH_b1_06697_000000025_0001_41_54_H_._HHH_b2_03690_0001_0000400021_0000001_0_0001 (protein)
chain: SSSSDYEERVKELLEELRELLEEGDEEKFEELVFEVSQLIFENNDFELFAELTEIFEEFIRSSSS
B18: il2ra_site1_1z92_normal_mot_1581cc1c700002558836ca695aafbf97_0001_1_af2_000000099_0001_17_32_H_._HHH_b1_03943_0001_0000100005_0000001_0_af2pred_0001_af2pred (protein)
chain: SSSSSSSELEELVEELVREFGLSKKLEESLRRLLRSAQEAGISEEEIEKELRAFAEIAHSSSSSS
B19: il2ra_site2_2erj_normal_mot_HHH_b1_06099_000000027_0001_20_36_H_._b0b48449b8979d840ab1151e5fe11a36_0001_af2_0001_0000400013_0000001_0 (protein)
chain: DEELRELAELLRRGDREAYRLLLRLLIRIERGDPEAEEKLEEAIRLARELGDEYVVESLEALLEV
B20: il2ra_site2_2erj_sap_13_mot_HHH_b2_03387_af2_000000185_0001_39_52_H_._75aebd89e8525d44691031ba10cfd25b_0001_0001_0001000013_0000001_0_0001 (protein)
chain: SSSSNEESSELSREVFEELKKLFKEGDPEKVEELAEEAIERLEELGDPDAAETLRALLEHVSSSS
B21: il2ra_site2_2erj_sap_24_mot_HHH_b2_00907_000000126_0001_1_15_H_._HHH_b2_07963_af2_0001_0000300017_0000001_0_0001 (protein)
chain: SSSSSSEEKEVWEEVAELLLRALHVSEEEAKELLEEAKRLAEEVNDPFLRRYIEYVEKSLSSSSS
B22: il2ra_site1_2b5i_normal_mot_HHH_b2_04910_000000118_0001_1_19_H_._HHH_b1_04153_0001_0000100001_0000001_0_1_af2pred_dldesign_0_af2pred (protein)
chain: SSSSSDPAKEALELFLEANKLYQAGKEEEAKEKLEKALELAKKGKATSLLKMIESALKLISSSSS
B23: il2ra_site2_3nfp_sap_14_mot_HHH_b1_06613_af2_000000098_0001_23_40_H_._HHH_b2_05028_0001_0000600019_0000001_0_0001 (protein)
chain: SSSDKHHKIWELAHRAFKLLERGNPEEARELLEEAEELAEELNSDVARRSLEELLKAIEEHSSSS
B24: il2ra_site1_2b5i_normal_mot_HHH_b1_01495_af2_000000272_0001_42_56_H_._HHH_b2_08182_af2_0001_0000100001_0000001_1 (protein)
chain: SSSSSDEEEAAELFLEASRLFARGNREEAKELLEEALRLAEEGGDPKTAEDIRFMLERLSSSSSS
B25: il2ra_site2_2erj_sap_22_mot_678ce523d3521e26f84bf18760a59296_0001_000000113_0001_1_12_H_._HHH_b1_03364_0001_0000900007_0000001_1_0001 (protein)
chain: SSSSDRLRRLYELAVRIAKLLAEGDEEETEKAIEEAEELAEEEKSDNAKEILEDLKKRVNSSSSS
B26: il2ra_site2_2erj_normal_mot_HHH_b2_01204_af2_000000056_0001_19_34_H_._HHH_b2_00923_0001_0001000009_0000001_0 (protein)
chain: SSSSSDTEEEVERLLEEAKHIQDLEEVYRLLVEALHLASKVRDPELQRLVAKVVEEIAESSSSSS
B27: il2ra_site1_1z92_sap_15_mot_HHH_b1_00451_000000274_0001_21_37_H_._HHH_b1_03292_af2_0001_0000100003_0000001_0_0001_af2pred_0001_af2pred_1 (protein)
chain: SEEEIEEEIRELLGVPPEVVEKLLKLIAELSGSPPEEALKELTEIARFAGDPERVKRLIERLEKA
B28: il2ra_site1_3nfp_normal_mot_HHH_b1_03420_af2_000000029_0001_41_57_H_._HHH_b2_02183_af2_0001_0000500045_0000001_0 (protein)
chain: SSSSNEVREVQELLEELREAIREGDEELVKEIFKRLQELAEERNDELIEHLAREALELNRNSSSS
B29: il2ra_site2_3nfp_sap_14_mot_HHH_b2_00822_000000043_0001_41_55_H_._ec5fd73691b6872a0dd65f4fb8198062_0001_1_af2_0001_0000400039_0000001_1_0001 (protein)
chain: SVEERAEKLAEEANVPPDAAYAALALAYLLRDGDLTPEEEEKLRRDIERAVGDPELAELVIELAK
B30: il2ra_site1_1z92_normal_mot_HHH_b2_04375_000000267_0001_42_56_H_._0c3bf8cb9d93094680b22e24baf1e485_0001_0001_0000100014_0000001_0_af2pred_0001_af2pred_swapped (protein)
chain: SVLELIKEILEELGNPELARDVEYSIEVAERRGIPPENIVKFLRRWAERKGDPDLLRAIELAEER
B31: il2ra_site1_2b5i_normal_mot_HHH_b2_06557_000000121_0001_42_56_H_._HHH_b2_02609_af2_0001_0000100014_0000001_0_af2pred_dldesign_0_af2pred (protein)
chain: SSSSSEVEDEIDDLALEALRLYKAGKKEEAKELLEKALELAKKAKDEKRVKQLEELLKLLSSSSS
B32: il2ra_site1_3nfp_normal_mot_HHH_b1_01159_af2_000000107_0001_1_20_H_._HHH_b2_04366_af2_0001_0000300021_0000001_0 (protein)
chain: SSSSDEEHRKLEELFRELFELAKKGDEEEARRLAEEAEELAEELGSKLHLRSLRIALRLLESSSS
B33: il2ra_site2_2erj_normal_mot_64bd02d26d05ce9f1a62b616cea0b888_0001_af2_000000020_0001_36_49_H_._HHH_b2_04281_af2_0001_0000600036_0000001_0 (protein)
chain: SSSSDELEEVYRLLVRLLRLVAEGDEEEVQKVAEEVRRLAEELDSPNLEEMVENLERLLESSSSS
B34: il2ra_site1_2b5i_sap_19_mot_6641a0bf45b743e2eabc084d195d318e_0001_000000060_0001_53_65_H_._HEEHE_2518_0001_0000400042_0000001_0_0001_af2pred_dldesign_0_af2pred (protein)
chain: SSSSSGEVRRLLLEAERLIKAGKLEEARELLERALALARARGRTKLAAALEKILEDLEELSSSSS
B35: il2ra_site2_2erj_normal_mot_HHH_b1_04373_af2_000000118_0001_18_33_H_._HHH_b2_05536_af2_0001_0000400024_0000001_0 (protein)
chain: SSSSNEELRELYELAVKLLRLASEGDEEEFEKLAEELKRLAQELQSDTVEEAVEFLEELISSSSS
B36: il2ra_site2_3nfp_sap_17_mot_HHH_b1_06589_000000230_0001_37_50_H_._HHH_b2_07531_af2_0001_0000800044_0000001_0_0001 (protein)
chain: SSSSDLEERLRELLEELEELVEEGDKERFREVAREVSQLVWENNDFEAFARLAELLYKITSSSSS
B37: il2ra_site2_3nfp_normal_mot_HHH_b1_01086_000000225_0001_20_36_H_._HHH_eva_0065_af2_0001_0000500027_0000001_0_af2pred_0001_1_af2pred_swapped (protein)
chain: DPESEHLKFVIKLLIIAFRAGNISPEEAEELLEKALEEARRLGDEEAEKLAEEALEEIERAKESS

Target: il2ra, P01589
Test: yeast display titration

Apparent Kd, inactive:
B1 no binding seen
B2 no binding seen
B3 no binding seen
B4 no binding seen
B5 no binding seen
B6 no binding seen
B7 no binding seen
B8 no binding seen
B9 no binding seen
B10 no binding seen
B11 no binding seen
B12 no binding seen
B13 no binding seen
B14 no binding seen
B15 no binding seen
B16 no binding seen
B17 no binding seen
B18 no binding seen
B19 no binding seen
B20 no binding seen
B21 no binding seen
B22 no binding seen
B23 no binding seen
B24 no binding seen
B25 no binding seen
B26 > 407 nM
B27 no binding seen
B28 no binding seen
B29 no binding seen
B30 no binding seen
B31 no binding seen
B32 no binding seen
B33 no binding seen
B34 no binding seen
B35 no binding seen
B36 no binding seen
B37 no binding seen

Random excerpt: two records from the list.
Apparent Kd, inactive:
B27 no binding seen
B23 no binding seen
